Laboratory results as given in patent US20040191820, “Protection-of telomere-1 (POT-1) protein and encoding polynucleotides” (The Regents of the University of Colorado, published 2004).

Chains of the proteins cited; added tags and fusions are not shown. A line that says so, or that is headed by a name, gives the form on record, which may keep a tag or linker.
SpPot1p N-terminal 22 kDa fragment (truncated Pot1p) (Schizosaccharomyces pombe), one chain, as listed by the source: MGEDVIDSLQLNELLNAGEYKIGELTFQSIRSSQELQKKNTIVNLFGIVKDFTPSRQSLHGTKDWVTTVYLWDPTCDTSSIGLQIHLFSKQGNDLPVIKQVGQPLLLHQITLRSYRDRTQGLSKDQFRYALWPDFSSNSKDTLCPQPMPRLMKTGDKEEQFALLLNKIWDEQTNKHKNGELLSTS

Tested on: SpPot1p N-terminal 22 kDa fragment (truncated Pot1p) (Schizosaccharomyces pombe)
Test: EMSA
Conditions: mixture with full length; truncated Pot1p-DNA complex seen; purified recombinant protein; label: 5' 32P; single-stranded DNA

“GGTTACACGGTTACAGGTTACAGGTTACAGGGTTACGGTTACG [S. pombe G-strand (PBoli112)]”: binds.

Construct, isoform or probe ends are uncertain for at least one entry.
